The campaign covered roughly 320,000 compounds. About 22,000 (6.9%) were called active. Inconclusive means that the source gave no clear call. Such entries were picked first, then a sample of the others. The call rests on the fitted dose curve; in most records, active means well fitted inhibition curve with a large enough effect; inconclusive means small, poorly fitted or top-dose-only effect, or another doubt; inactive means no such curve, though single readings can be large or run the other way. Potencies beside an inconclusive call are fits to weak or partial responses and may not hold up.
Assay: Primary qHTS for delayed death inhibitors of the malarial parasite plastid, 96 hour incubation
Settings: P. falciparum luciferase reporter growth; series mostly up to 28.7 µM
Method in brief: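 Readout is luminescence from an integrated firefly luciferase in P. falciparum. Red cells, 2% hematocrit and 0.05% parasitemia final, were cultured with compound through two parasite generations (96 hours) at 37 C, 5% CO2.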
Potency means the concentration at half of the fitted maximal effect.

Structure (SMILES) | Potency
Cn1c(SCc2cccc([N+](=O)[O-])c2)nc2ccccc2c1=O | active: 10.4 µM
CCOC(=O)c1[nH]c2cc(OC)c(OC)cc2c1NC(=O)CN1CCN(C)CC1 | inconclusive: 9.28 µM [inhibitor, partial curve]
CCOC(=O)Nc1ccc2c(c1)N(C(=O)CN(CC)CC)c1ccccc1CC2 | inconclusive: 11.7 µM [inhibitor, partial curve]
O=C(c1cc(-c2cccc(O)c2)on1)N1CCCCC1 | inconclusive: 14.7 µM [inhibitor, single point]
COc1ccccc1OC(C)C(=O)N1CCN(Cc2ccc3c(c2)OCO3)CC1 (stereo not given) | inactive
N#CC(CC(=O)c1ccc(F)cc1)c1ccc2c(c1)OCO2 (stereo not given) | inactive
CCOc1ccccc1N1CCN(C(=S)NCc2ccco2)CC1 | inconclusive: 20.8 µM [inhibitor, partial curve, poor fit]
CCC(C(=O)NCCCN(CC)Cc1ccccc1)n1nc(C)c2sc3ccccc3c2c1=O (stereo not given) | inactive
O=C(c1cc(-c2ccc3c(c2)OCO3)on1)N1CCCCC1 | active: 13.1 µM
COc1ccc(CNC(=O)C(=O)NCC2CCCN2S(=O)(=O)c2cccs2)cc1 (stereo not given) | inconclusive: 0.738 µM [inhibitor, full curve, poor fit]
CCCOc1ccc(-c2nnc(-c3ccncc3)o2)cc1 | inconclusive: 5.22 µM [inhibitor, partial curve, poor fit]
CC(=O)c1ccc(-n2nnnc2SCC(=O)Nc2cccc(NC(=O)c3ccco3)c2)cc1 | inconclusive: 0.0037 µM [inhibitor, full curve, poor fit]
CC(C)(C)N(CC#CCC(O)(c1ccccc1)c1ccccc1)CCO | inconclusive: 9.28 µM [inhibitor, partial curve, poor fit]
COc1ccc(-n2nc3c(c2NC(=O)C2CC2)CS(=O)C3)cc1 (stereo not given) | inconclusive: 7.38 µM [inhibitor, partial curve]
COc1ccc(NS(=O)(=O)c2cc(NC(=O)/C=C/c3cc(OC)c(OC)c(OC)c3)ccc2N2CCCCC2)cc1 | active: 2.08 µM
Cc1ccc(C(=O)N/C(=C\c2ccc3c(c2)OCO3)C(=O)Nc2ccc(C(=O)O)cc2)cc1 | inconclusive: 18.5 µM [inhibitor, single point]
S=C(NCC1COc2ccccc2O1)Nc1ccc(Br)cc1 (stereo not given) | inactive
Cc1ccc(NC(=O)CS(=O)CC(=O)Nc2cnc3ccccc3c2)cc1Cl (stereo not given) | inactive
Cc1cccc(N2C(=O)CC(Sc3nnc(C)s3)C2=O)c1 (stereo not given) | inactive
O=C(C(Cc1ccccc1)n1cccc1)N1CCN(c2ccccc2)CC1 (stereo not given) | inconclusive: 0.0522 µM [inhibitor, full curve, poor fit]
COc1cc(C(=O)OCCNC(=O)c2ccncc2)cc(OC)c1OC | inconclusive: 10.4 µM [inhibitor, single point]
Cc1ccc(S(=O)(=O)N2CCCCC2)cc1C(=O)N1CCCCCC1 | inconclusive: 10.4 µM [inhibitor, single point]
O=C(CCC(=O)OCc1ccc([N+](=O)[O-])cc1Cl)Nc1ccccc1 | inactive

Structure (SMILES) | Potency
O=C(Cn1c(-c2ccccc2Cl)nc2ccccc21)Nc1cccc(Cl)c1 | inconclusive: 18.5 µM [inhibitor, single point]
Cc1cc(C)n2nc(SC(C)C(=O)NC3CCCCC3C)nc2n1 (stereo not given) | inactive
CCc1ccc(CN2CCN(c3ncccn3)CC2)cc1 | inconclusive: 20.8 µM [inhibitor, single point]
COc1ccc(CN2CCN(c3ccccc3F)CC2)c(OC)c1 | inactive
CC(C)(C)NC(=O)/C=C/c1ccc(C(F)(F)F)cc1 | inactive
O=C(Nc1ccccc1)Nc1ccc(C(=O)N2CCOCC2)cc1 | inactive
CCOC(=O)C(Cc1ccc(OC)c([N+](=O)[O-])c1)NC(=O)CCC(=O)Nc1ccc(C)cc1 (stereo not given) | inconclusive: 5.86 µM [inhibitor, partial curve, poor fit]
CC(NS(=O)(=O)c1ccc(CCC(=O)NCc2ccco2)cc1)c1ccccc1 (stereo not given) | inconclusive: 18.5 µM [inhibitor, single point]
CCN1C(=O)/C(=C/C=C2\N(CC)c3cc(S(=O)(=O)N(C)C)ccc3N2c2ccccc2)SC1=S | active: 13.1 µM
Cn1c(=O)c2ncn(CC(=O)NCCOCc3ccccc3Cl)c2n(C)c1=O | inactive
COC(=O)c1c(C(=O)OC)c(-c2cccc(C)c2)n2c1CS(=O)(=O)C2 | inconclusive: 6.57 µM [inhibitor, partial curve]
C[C@@]12CCC=C[C@H]1[C@H](c1ccc3ccccc3c1/C=C/c1ccccc1)N(Cc1ccccc1)C2=O | inconclusive: 14.7 µM [inhibitor, single point]
O=C(CCNS(=O)(=O)c1ccc(Cl)cc1)N1CCC2(O)CCCCC2C1 (stereo not given) | inconclusive: 18.5 µM [inhibitor, single point]
CCCOP(=O)(c1ccc(N(C)C)cc1)C(Nc1ccccc1)c1ccc(N(C)C)cc1 (stereo not given) | active: 8.28 µM
COc1cc(OC)c(NC(=O)CN(C)S(=O)(=O)c2ccc3[nH]c(=O)oc3c2)cc1Cl | inconclusive: 10.4 µM [inhibitor, single point]
COc1ccc(N(CC(=O)NCCSc2ccc(C)cc2)S(=O)(=O)c2ccccc2)c(OC)c1 | inconclusive: 18.5 µM [inhibitor, single point]
COc1ccc(Br)cc1CN(C)CC(=O)Nc1c(Cl)cccc1Cl | inconclusive: 10.4 µM [inhibitor, single point]
O=C(CN1CCN(c2ccccc2)CC1)N1N=CCC1c1ccccc1 (stereo not given) | inconclusive: 3.29 µM [inhibitor, full curve]
CN(C)c1ccc(C(CNC(=O)c2ccco2)N2CCCC2)cc1 (stereo not given) | inactive
O=C(Nc1cccc2c1CCCC2)c1ccc(Br)o1 | inactive
Cc1cc(C(F)(F)F)c2c(=O)[nH]c(=O)n(Cc3ccccc3)c2n1 | inconclusive: 4.15 µM [inhibitor, single point]
CCn1c(SCC(=O)Nc2ccc(-c3nc4ccc(C)cc4s3)cc2)nnc1-c1ccccc1 | active: 13.1 µM

Molecules from the list above that have an aryl thioether with sulfur outside any ring:
Structure (SMILES) | Potency
Cn1c(SCc2cccc([N+](=O)[O-])c2)nc2ccccc2c1=O | active: 10.4 µM
CC(=O)c1ccc(-n2nnnc2SCC(=O)Nc2cccc(NC(=O)c3ccco3)c2)cc1 | inconclusive: 0.0037 µM [inhibitor, full curve, poor fit]
Cc1cccc(N2C(=O)CC(Sc3nnc(C)s3)C2=O)c1 (stereo not given) | inactive
Cc1cc(C)n2nc(SC(C)C(=O)NC3CCCCC3C)nc2n1 (stereo not given) | inactive
COc1ccc(N(CC(=O)NCCSc2ccc(C)cc2)S(=O)(=O)c2ccccc2)c(OC)c1 | inconclusive: 18.5 µM [inhibitor, single point]
CCn1c(SCC(=O)Nc2ccc(-c3nc4ccc(C)cc4s3)cc2)nnc1-c1ccccc1 | active: 13.1 µM
